{"source": "paper doi:10.1101/2021.03.11.435015", "key": {"[1]": {"molecular_target": "Pumilio1 (Pum1), mouse (mouse (endogenous in brain)) (UniProt Q80U78)", "assay": "co-IP"}, "[2]": {"molecular_target": "Pumilio1 (Pum1), mouse (mouse (endogenous in brain)) (UniProt Q80U78)", "assay": "co-IP", "remark": "listed apart in the source"}, "[3]": {"molecular_target": "Pumilio1 (Pum1), mouse (mouse (endogenous in brain)) (UniProt Q80U78)", "assay": "co-IP", "remark": "listed apart in the source"}, "Myc-PUM1-WT (human) [4]": {"molecular_target": "Myc-PUM1-WT (human) (UniProt Q14671)", "assay": "co-IP"}, "Myc-PUM1-T1035S (human) [5]": {"molecular_target": "Myc-PUM1-T1035S (human) (UniProt Q14671)", "assay": "co-IP"}, "Myc-PUM1-WT (human) [6]": {"molecular_target": "Myc-PUM1-WT (human) (UniProt Q14671)", "assay": "co-IP", "remark": "listed apart in the source"}, "Myc-PUM1-R1147W (human)": {"molecular_target": "Myc-PUM1-R1147W (human) (UniProt Q14671)", "assay": "co-IP"}, "Myc-PUM1-T1035S (human) [7]": {"molecular_target": "Myc-PUM1-T1035S (human) (UniProt Q14671)", "assay": "co-IP", "remark": "listed apart in the source"}, "[8]": {"molecular_target": "GST-PUM2, recombinant (human) (UniProt Q8TB72)", "assay": "pull-down"}, "[9]": {"molecular_target": "Pum2, mouse (mouse (endogenous in brain)) (UniProt Q80U58)", "assay": "co-IP"}, "[10]": {"molecular_target": "Ago2, mouse (mouse (endogenous in brain)) (UniProt Q8CJG0)", "assay": "co-IP"}, "[11]": {"molecular_target": "Cnot1, mouse (mouse (endogenous in brain)) (UniProt Q6ZQ08)", "assay": "co-IP"}, "[12]": {"molecular_target": "Fzr1, mouse (mouse (endogenous in brain)) (UniProt Q9R1K5)", "assay": "co-IP"}, "[13]": {"molecular_target": "Pum2, mouse (mouse (endogenous in brain)) (UniProt Q80U58)", "assay": "co-IP", "remark": "listed apart in the source"}, "[14]": {"molecular_target": "Rptor, mouse (mouse (endogenous in brain)) (UniProt Q8K4Q0)", "assay": "co-IP"}, "[15]": {"molecular_target": "Ago2, mouse (mouse (endogenous in brain)) (UniProt Q8CJG0)", "assay": "co-IP", "remark": "listed apart in the source"}, "[16]": {"molecular_target": "Cnot1, mouse (mouse (endogenous in brain)) (UniProt Q6ZQ08)", "assay": "co-IP", "remark": "listed apart in the source"}, "[17]": {"molecular_target": "Anapc1, mouse (mouse (endogenous in brain)) (UniProt P53995)", "assay": "co-IP"}, "[18]": {"molecular_target": "Cad, mouse (mouse (endogenous in brain)) (UniProt B2RQC6)", "assay": "co-IP"}}, "note": "Where two headings read alike, the source gives them in different places. Results are given in words; binding and its absence hold for the method and conditions named. For some assays here: In cells and extracts the contact can be indirect. Some binding calls cover weakened binding; strength is not graded here.", "data": [{"substance": "Ago1, mouse (from UniProt Q8CJG1 1-857)", "values": [{"measurement": "binding", "setting": "[1]", "result": "no binding"}, {"measurement": "binding", "setting": "[2]", "result": "no binding"}]}, {"substance": "Ago2, mouse (from UniProt Q8CJG0 1-860)", "values": [{"measurement": "binding", "setting": "[2]", "result": "binds"}, {"measurement": "binding", "setting": "[3]", "result": "binds"}]}, {"substance": "Ago3, mouse (from UniProt Q8CJF9 1-860)", "values": [{"measurement": "binding", "setting": "[1]", "result": "no binding"}, {"measurement": "binding", "setting": "[2]", "result": "no binding"}]}, {"substance": "Anapc1, mouse (from UniProt P53995 1-1944)", "values": [{"measurement": "binding", "setting": "[2]", "result": "binds"}]}, {"substance": "Cad, mouse (from UniProt B2RQC6 1-2225)", "values": [{"measurement": "binding", "setting": "[2]", "result": "binds"}]}, {"substance": "Cnot1, mouse (from UniProt Q6ZQ08 1-2375)", "values": [{"measurement": "binding", "setting": "[2]", "result": "binds"}, {"measurement": "binding", "setting": "[3]", "result": "binds"}]}, {"substance": "Fzr1, mouse (from UniProt Q9R1K5 1-493)", "values": [{"measurement": "binding", "setting": "[2]", "result": "binds"}]}, {"substance": "GST-AGO2 (from UniProt Q9UKV8 1-859)", "values": [{"measurement": "binding", "setting": "Myc-PUM1-WT (human) [4]", "result": "binds"}]}, {"substance": "GST-CNOT1 (from UniProt A5YKK6 1-2376)", "values": [{"measurement": "binding", "setting": "Myc-PUM1-WT (human) [4]", "result": "binds"}]}, {"substance": "GST-PUM1-WT (from UniProt Q14671-3 1-1188)", "values": [{"measurement": "binding", "setting": "Myc-PUM1-T1035S (human) [5]", "result": "binds"}, {"measurement": "binding", "setting": "Myc-PUM1-WT (human) [6]", "result": "binds"}, {"measurement": "binding", "setting": "Myc-PUM1-R1147W (human)", "result": "binds"}, {"measurement": "binding", "setting": "Myc-PUM1-T1035S (human) [7]", "result": "binds"}, {"measurement": "binding", "setting": "Myc-PUM1-WT (human) [4]", "result": "binds"}]}, {"substance": "MBP-SNAP-PUM1-His6, recombinant (from UniProt Q14671-3 1-1188)", "values": [{"measurement": "binding", "setting": "[8]", "result": "binds"}]}, {"substance": "Pum2, mouse (from UniProt Q80U58 1-1066)", "values": [{"measurement": "binding", "setting": "[2]", "result": "binds"}, {"measurement": "binding", "setting": "[3]", "result": "binds"}]}, {"substance": "Pumilio1 (Pum1), mouse (from UniProt Q80U78 1-1189)", "values": [{"measurement": "binding", "setting": "[9]", "result": "binds"}, {"measurement": "binding", "setting": "[10]", "result": "binds"}, {"measurement": "binding", "setting": "[11]", "result": "binds"}, {"measurement": "binding", "setting": "[12]", "result": "binds"}, {"measurement": "binding", "setting": "[13]", "result": "binds"}, {"measurement": "binding", "setting": "[14]", "result": "binds"}, {"measurement": "binding", "setting": "[15]", "result": "binds"}, {"measurement": "binding", "setting": "[16]", "result": "binds"}, {"measurement": "binding", "setting": "[17]", "result": "binds"}, {"measurement": "binding", "setting": "[18]", "result": "binds"}]}, {"substance": "Rptor, mouse (from UniProt Q8K4Q0 1-1335)", "values": [{"measurement": "binding", "setting": "[2]", "result": "binds"}]}]}
